About 210 (0.4%) of roughly 52,000 sequences were called active.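 Rule for the calls: active = gene whose silencing raises cell survival under the drug, median off-target-corrected z-score across its silencing RNAs 2 or more; inactive = the rest.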 Some of the results follow.

In PubChem BioAssay AID1347423 (Functional Genomics Laboratory (NCATS/FGL), 2020) one finds z-score data, which are given here for 29 sequences.

The assay is described as follows: Resistance to Poly (ADP-Ribose) Polymerase inhibitor: Gene Identification via Genome-wide siRNA Screen. Particulars: mouse BRCA2 R2336H ES cells, olaparib, CellTiter-Glo viability; stronger effect = higher value. An outline of the steps:
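Mouse BRCA2 R2336H ES cells were reverse-transfected with siRNA (20 nM final), treated at 48 h with 500 nM olaparib, and read by CellTiter-Glo after 72 h. Scores: MAD-based z per siRNA, median per gene, seed off-target correction.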
On the technique in general: ATP-based viability assays read luminescence as a measure of living cells.
For “GGAAGAUACUGUGGUUUAUTT against 6530406M24Rik”, the z-score is inactive: 0.22.
In the case of GGUUUGCAUUGUCGGCCAUTT against Gls2 it was inactive: 0.391; in that of GGGUUUUGUUUUCCUUCUUTT against Usp39, inactive: 2.51.
The result for GAAGUGUGCCAAGGACUGUTT against Mt3 reads inactive: -0.0923; that for GGUGGUUUGAAAAAAGUCATT against Mycbpap, inactive: -0.734.
In the case of CGAGAAUAUGUGAGAGCUUTT against Gm83 it was inactive: -2.45.
In the case of “GGUCCAGGUGAUAAAUAUATT against 4921525H12”, the z-score is inactive: -0.687.
In the case of GGUUGGAGAUCUCAUCUAUTT against Exosc3 it was inactive: -2.1; in that of CCUGGUAGUCAGUUUUUGUTT against Lactb, inactive: 0.388.
In the case of “GGCCAAUUUCUUCACUUCUTT against 2410006F12Rik” it was inactive: -1.66.
In the case of GCUUCUGAUAGAUCAUAAGTT against Aoc3 it was inactive: 0.408; in that of “GGUUGGAAACACAGCAAAATT against 2610528M18Rik”, inactive: -0.642.
Regarding GGGCUUGAAGAAUAACAGATT against BC018222, the z-score was inactive: -0.64.
Consider “GCCCAGGUCUUGUUGACAATT against B930008A12Rik”, for which the z-score is inactive: -0.912.
On to CCACUAAGGUUUGAAGAAGTT against Nes, for which the z-score was inactive: -0.763.
Consider GGAUCCAGAGAUUCAAUUCTT against Vcam1, for which the z-score is inactive: 0.259.
In the case of GAAGAUCUUGAAGCUUACUTT against Commd4 it was inactive: -0.711.
In the case of GGAUCAAACAAAUCAUCAATT against Plscr4 it was inactive: 0.419; in that of GGUGGUCUACUUCACCGCATT against Xtrp3s1, inactive: 0.383; in that of CGCACUGCCUCACUUUGAGTT against Gpr54, inactive: -0.304.
The result for GGUUUUAGGACACCUGGUUTT against Gys1 reads inactive: 1.02.
Take CCUAUGACUGUAUGUUUUGTT against Hnrpr: the z-score is inactive: 0.212.
The result for “GGCUAUCAUCAAGAAGGCUTT against 4732497O03Rik” reads inactive: 0.819; that for GCAUUCCUUGUCUGCUAUUTT against Fgd3, inactive: -1.03.
In the case of “GGUGUUUUCACACUGGAAGTT against 2700084L22Rik” it was inactive: 2.47; in that of GGAGUUAAGAAUAACCAAUTT against Epm2aip1, inactive: -1.89.
The result for GGAAAACCUGCCUAGGAAATT against Rad21 reads inactive: -1.84; that for GAGUCUUCUCUGCCUGUCUTT against Sprrl1, inactive: -0.404; that for GCAAGUAUGCCAUGAGAUUTT against BC049635, inactive: -0.358.
